# Measurements as given in patent US5849890.
# Chains of the proteins cited; added tags and fusions are not shown. A line that says so, or that is headed by a name, gives the form on record, which may keep a tag or linker. Residues count along the entry.
# UniProt P01215, 25-116: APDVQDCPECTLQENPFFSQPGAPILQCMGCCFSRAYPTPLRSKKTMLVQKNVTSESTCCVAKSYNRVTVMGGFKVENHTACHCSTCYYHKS
# UniProt P01222, 21-132: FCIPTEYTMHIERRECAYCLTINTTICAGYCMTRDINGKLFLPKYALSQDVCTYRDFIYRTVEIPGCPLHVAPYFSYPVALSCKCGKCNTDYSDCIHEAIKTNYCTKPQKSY
# human chorionic gonadotropin (hCG) heterodimer (Homo sapiens), one chain, as listed by the source, chain 1 of 2: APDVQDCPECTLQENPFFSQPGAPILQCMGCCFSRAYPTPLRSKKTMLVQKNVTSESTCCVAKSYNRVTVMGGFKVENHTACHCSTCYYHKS
# human luteinizing hormone (hLH) (Homo sapiens), one chain, as listed by the source, chain 2 of 2: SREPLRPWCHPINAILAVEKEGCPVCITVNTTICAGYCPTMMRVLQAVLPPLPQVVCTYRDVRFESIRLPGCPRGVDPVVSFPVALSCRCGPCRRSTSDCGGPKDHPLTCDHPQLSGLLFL
# Assays:
# Assay in all cases: filter binding
# [1] = tested on: human chorionic gonadotropin (hCG) heterodimer (Homo sapiens); conditions: 2'-F all pyrimidines, range for the group, individual value not shown, purified native protein, protein details: Calbiochem or Vitro Diagnostics (14,000 IU/mg), label: 32P
# [2] = target: glycoprotein hormone common alpha-subunit (UniProt P01215); conditions: 2'-NH2 all pyrimidines; purified native protein; protein details: UCB-bioproducts; label: 32P
# [3] = tested on: human luteinizing hormone (hLH) (Homo sapiens); conditions: purified native protein, label: 32P
# [4] = target: hTSH beta-subunit (Homo sapiens) (UniProt P01222); conditions: 2'-NH2 all pyrimidines; purified native protein; label: 32P
sequence,measurement,setting,value
GGGAGACAAGAAUAAACGCUCAAAAGUCCCUCGCAGAGCUUGCUGGUUCGAUUGAACGAUCCUUUCGACAGGAGGCUCACAACAGGC [Class 1 ligand 19],binding result,[1]; 0.84% bound at 100 nM,binds
GGGAGACAAGAAUAAACGCUCAACAGCGAUUGAACGACCUUCAGCUGAUGGGUAUGGGAUUCGACAGGAGGCUCACAACAGGC [Class 1 ligand 41],binding result,"[1]; 0.61% bound at 100 nM, mutated conserved region",binds
GGGAGACAAGAAUAAACGCUCAACAGCGAUUGAACGAUCCUUUCAGCUGAUGGGUAUGGGAUUCGACAGGAGGCUCACAACAGGC [Class 1 ligand 36],binding result,[1]; 0.60% bound at 100 nM,binds
GGGAGACAAGAAUAAACGCUCAACAGUGAUUGAACGAUCCUUUCAGCUGGUGGGUAUGGGGUUCGACAGGAGGCUCACAACAGGC [Class 1 ligand 25],binding result,[1]; 2.20% bound at 100 nM,binds
GGGAGACAAGAAUAAACGCUCAAUUUGGAAGAUCCCAGAGUCUCGUUGGUCGUUAAACGAUCCUUCGACAGGAGGCUCACAACAGGC [Class 1 ligand 33],binding result,"[1]; 0.03% bound at 100 nM, mutated conserved region",binds
GGGAGACAAGAAUAAACGCUCAAUUUGGAAGAUCCCAGAGUCUCGUUGGUCGUUGAACGAUCCUUCGACAGGAGGCUCACAACAGGC [Class 1 ligand 6],binding result,[1]; 4.64% bound at 100 nM,binds
GGGAGGACGAUGCGGAUGUUGGCAGCAGGGUCCGACGGCGUAACCUUGCCAGCUGCAGACGACUCGCCCGA [T-15],Kd,[2],> 3.6 µM
same,Kd,[3]; 2'-NH2 all pyrimidines,> 1 µM
same,Kd,[4],> 3.2 µM
GGGAGUCUCGUUGGUCGUUGAACGAUCCUUCGACAGGAGGCUCA [hCG ligand 9TR1],Kd,"[3]; 2'-F all pyrimidines, SBB buffer, variant of hCG ligand 9",> 80 µM
same,Kd,"[3]; 2'-F all pyrimidines, in urine, variant of hCG ligand 9",> 80 µM

# For some assays here: The exact form of at least one protein or probe is not confirmed.
